Record: PubChem BioAssay AID1159584 (Peter MacCallum Cancer Centre, 2016)
Assay: 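Genes whose loss is lethal only together with E-cadherin loss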 (primary screen). Cells: human MCF10A breast epithelial cells, parental and CDH1-null. Reagents: siRNA against human genes. Detection: 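ATP luminescence (CellTiter-Glo) viability per line relative to mean mock wells over all plates, and the ratio of CDH1-null to parental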. Reading the numbers: CDH1-null / parental viability ratio: higher = CDH1-null cells survive relatively better than parental; CDH1-null viability vs mock: higher = more viable CDH1-null cells; parental viability vs mock: higher = more viable parental cells.
Shown is an unselected part of about 18,000 reagents tested. Not stated in the record: the amount of reagent, the time to read-out.

Target gene	CDH1-null / parental viability ratio	CDH1-null viability vs mock (fraction of mock)	parental viability vs mock (fraction of mock)
MT1F	1.16	0.86	0.74
MAP7D1	0.89	0.5	0.56
S100A14	0.92	0.6	0.65
WSCD1	1.06	0.85	0.8
GBF1	1.04	0.84	0.81
SKAP2	0.86	0.64	0.74
ADCY4	0.92	0.81	0.88
CRISP3	1.2	0.73	0.61
ZNF544	1.24	0.82	0.66
NRGN	0.79	0.76	0.96
LRRC37B	1.17	0.89	0.76
FARP2	0.87	0.6	0.69
AS3MT	0.97	0.62	0.64
ANXA8	1.48	0.92	0.62
CORO2A	1.04	0.76	0.73
LCT	0.94	0.9	0.96
MRPL1	0.93	0.93	1
CEL	0.82	0.55	0.67
SAMD11	0.95	0.8	0.84
SERHL2	1.03	0.8	0.78
NR1D2	0.83	0.7	0.84
CYP2C18	0.89	0.82	0.92
NSFL1C	0.69	0.5	0.72
ANKRD20A2P	0.99	0.79	0.8
XAF1	0.96	1.08	1.12
PCSK7	1.18	0.59	0.5
FAM163B	0.87	0.89	1.02
SOX3	1.01	0.88	0.87
MESP1	0.72	0.58	0.8
GPAT4	1.16	1.02	0.88
LYPLA1	1.03	0.99	0.96
G6PC3	1.56	0.84	0.54
TMEM117	1.07	0.58	0.54
SYT8	0.98	0.8	0.82
SNX8	1.03	0.62	0.6
CDC34	1.25	0.55	0.44
ZNF554	0.94	1.02	1.09
PRSS55	1.35	0.92	0.68
SLC26A6	1.48	0.86	0.58
ESM1	0.9	0.7	0.78
GAMT	1.11	1.02	0.92
KCNIP3	1.05	0.85	0.81
TMIE	1.22	0.95	0.78
CERS3	0.69	0.58	0.84
SMCO1	0.98	1.01	1.03
HSP90AB1	1.04	1.01	0.97
GAB3	1.15	0.71	0.62
NETO1	0.99	1.17	1.18
TLR9	1.18	0.93	0.79
CASP9	1.03	0.66	0.64
OR2T27	1.13	1.04	0.92
MGAT4C	0.9	0.79	0.88
ARL4D	1.13	0.7	0.62
PAGE1	0.9	0.94	1.05
STRAP	0.74	0.55	0.74
ATP6V1H	1.02	0.82	0.8
SLC35F1	0.68	0.52	0.76
NPAP1	0.96	0.69	0.72
FBXL21P	0.88	0.56	0.64
TSLIG3B	0.68	0.5	0.74
CCDC146	0.86	0.82	0.95
NCOR2	1.06	0.88	0.83
TGS1	0.81	0.56	0.69
USP40	1	0.62	0.62
ABCC3	1.24	1.04	0.84
SECISBP2L	1.16	0.88	0.76
ARHGEF2	0.93	0.8	0.86
ZNF782	0.97	0.76	0.78
FBXO24	0.98	0.82	0.84
AP2S1	1.12	0.9	0.8
PRSS21	1.29	0.8	0.62
NPM3	1.25	1.21	0.97
CD300C	1.61	0.79	0.49
ZCWPW2	1.41	0.79	0.56
NEO1	1.33	0.73	0.55
NET1	1.04	0.94	0.9
IL33R	1.05	0.82	0.78
SHC3	0.94	0.98	1.04
VCY1B	1.1	0.57	0.52
MRPL28	1.23	1.03	0.84
MOBP	1.01	0.81	0.8
GMPPB	1.14	1.08	0.95
RND2	1.6	1.34	0.84
ZNF623	1.16	0.86	0.74
STC1	0.83	0.55	0.66
NR1D1	1.12	0.9	0.8
ABLIM2	1.1	0.22	0.2

Part of the list above, showing only “CDH1-null viability vs mock (fraction of mock)”:
KCNIP3	0.85
TMIE	0.95
CERS3	0.58
SMCO1	1.01
HSP90AB1	1.01
GAB3	0.71
NETO1	1.17
TLR9	0.93
CASP9	0.66
OR2T27	1.04
MGAT4C	0.79
